Test results published in publication PMC6351106.
Results are given in words; binding and its absence hold for the method and conditions named. In cells and extracts the contact can be indirect. Binding can be weak; no strength is given. Where a sequence is shown, tags or fusion partners need not be part of it.

Molecular target: Streptag-FLAG-tagged SEC23B(S186D) (human) (UniProt Q15437)
Assay: co-IP; affinity purification of Streptag-tagged bait on Streptactin beads from transfected HEK293T extracts (50 mM Tris pH 7.4, 150 mM NaCl, 2 mM EDTA, 10% glycerol, 0.5% NP-40; 2 h at 4 C), immunoblotting; in some panels MLN4924 for 4 h, EBSS starvation or co-expressed ULK1

binding	Substance
binds	GFP-SAR1 (H79G)
no binding	GFP-SAR1 (T39N)
